Data: patent US20250036036A1, “ELECTROPHOTOGRAPHIC PHOTOCONDUCTOR, ELECTROPHOTOGRAPHIC PHOTOCONDUCTOR CARTRIDGE, IMAGE FORMATION DEVICE, AND COMPOUND” (MITSUBISHI CHEMICAL CORPORATION, priority 2022, published 2025)

Assay: Electrical properties: residual potential (VL) of single-layered photoconductor with protective layer
Settings: 780 nm 1.3 μJ/cm^2, 60 ms after irradiation, 25° C., 50% RH

C=CC(=O)OCCOC(=O)CCC(=O)OCC(CC(C)C)N1C(=O)c2ccc3c4c(ccc(c24)C1=O)C(=O)N(C(COC(=O)CCC(=O)OCCOC(=O)C=C)CC(C)C)C3=O (centres unmarked) [Comparative compound 2]
Residual potential VL (V) (protective layer: electron transporting compound 100 parts / M9050 100 parts, THF/2-propanol 3/7, V0 +700 V): 205 V

C=C(C)C(=O)OCC(COC(=O)C(=C)C)OC(=O)CCC(=O)OCC(CC(C)C)N1C(=O)c2ccc3c4c(ccc(c24)C1=O)C(=O)N(CC(CC)CCCC)C3=O (centres unmarked) [Compound 1]
Residual potential VL (V) (protective layer: electron transporting compound 100 parts / M9050 50 parts, toluene/2-propanol 3/7, V0 +700 V): 309 V
